Experimental data published in US5652105.

The chains behind the UniProt entries cited, without tags or fusion partners. Where a name states a change or a piece, a line headed by the entry shows the natural chain unless it says otherwise.
UniProt P13864: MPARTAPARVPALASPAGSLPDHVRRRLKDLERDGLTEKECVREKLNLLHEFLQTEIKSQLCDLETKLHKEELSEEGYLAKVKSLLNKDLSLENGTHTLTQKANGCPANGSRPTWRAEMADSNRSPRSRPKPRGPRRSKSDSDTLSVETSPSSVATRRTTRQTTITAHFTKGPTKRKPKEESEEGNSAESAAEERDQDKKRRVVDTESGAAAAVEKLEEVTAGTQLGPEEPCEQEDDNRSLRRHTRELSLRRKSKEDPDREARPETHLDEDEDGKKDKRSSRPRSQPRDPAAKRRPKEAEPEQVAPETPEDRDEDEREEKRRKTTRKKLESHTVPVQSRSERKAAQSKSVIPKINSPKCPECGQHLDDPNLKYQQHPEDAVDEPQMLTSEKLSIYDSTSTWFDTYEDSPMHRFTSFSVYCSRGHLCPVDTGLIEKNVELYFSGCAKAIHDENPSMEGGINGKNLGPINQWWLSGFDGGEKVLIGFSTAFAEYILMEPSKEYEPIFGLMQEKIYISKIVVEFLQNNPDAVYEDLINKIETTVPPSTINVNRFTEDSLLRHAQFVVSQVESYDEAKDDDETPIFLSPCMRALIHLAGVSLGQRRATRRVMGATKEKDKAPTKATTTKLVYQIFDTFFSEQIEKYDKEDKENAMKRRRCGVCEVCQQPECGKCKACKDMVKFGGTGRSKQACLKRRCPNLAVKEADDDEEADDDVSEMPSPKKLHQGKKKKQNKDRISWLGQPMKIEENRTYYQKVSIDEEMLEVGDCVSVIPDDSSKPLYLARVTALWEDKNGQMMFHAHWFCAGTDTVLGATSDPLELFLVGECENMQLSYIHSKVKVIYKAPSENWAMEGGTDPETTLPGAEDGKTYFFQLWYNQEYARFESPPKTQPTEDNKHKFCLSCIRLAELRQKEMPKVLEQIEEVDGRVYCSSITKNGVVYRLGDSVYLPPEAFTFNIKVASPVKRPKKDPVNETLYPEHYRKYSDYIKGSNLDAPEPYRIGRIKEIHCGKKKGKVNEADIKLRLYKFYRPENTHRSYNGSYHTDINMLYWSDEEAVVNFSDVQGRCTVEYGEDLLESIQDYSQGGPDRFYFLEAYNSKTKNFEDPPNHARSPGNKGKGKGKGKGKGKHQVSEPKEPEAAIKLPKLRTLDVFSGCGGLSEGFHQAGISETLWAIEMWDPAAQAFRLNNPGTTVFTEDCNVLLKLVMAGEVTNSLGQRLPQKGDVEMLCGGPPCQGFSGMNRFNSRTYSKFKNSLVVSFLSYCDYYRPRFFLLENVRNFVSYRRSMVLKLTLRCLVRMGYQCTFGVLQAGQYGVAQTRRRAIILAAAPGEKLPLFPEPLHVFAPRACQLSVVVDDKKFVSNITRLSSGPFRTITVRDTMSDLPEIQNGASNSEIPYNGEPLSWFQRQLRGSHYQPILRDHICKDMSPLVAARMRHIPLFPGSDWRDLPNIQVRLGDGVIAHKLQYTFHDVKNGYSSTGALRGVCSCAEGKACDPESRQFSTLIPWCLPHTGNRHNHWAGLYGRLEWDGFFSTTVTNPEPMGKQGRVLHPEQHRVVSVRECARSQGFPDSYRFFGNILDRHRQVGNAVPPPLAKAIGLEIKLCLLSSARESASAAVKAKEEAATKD
UniProt P15840: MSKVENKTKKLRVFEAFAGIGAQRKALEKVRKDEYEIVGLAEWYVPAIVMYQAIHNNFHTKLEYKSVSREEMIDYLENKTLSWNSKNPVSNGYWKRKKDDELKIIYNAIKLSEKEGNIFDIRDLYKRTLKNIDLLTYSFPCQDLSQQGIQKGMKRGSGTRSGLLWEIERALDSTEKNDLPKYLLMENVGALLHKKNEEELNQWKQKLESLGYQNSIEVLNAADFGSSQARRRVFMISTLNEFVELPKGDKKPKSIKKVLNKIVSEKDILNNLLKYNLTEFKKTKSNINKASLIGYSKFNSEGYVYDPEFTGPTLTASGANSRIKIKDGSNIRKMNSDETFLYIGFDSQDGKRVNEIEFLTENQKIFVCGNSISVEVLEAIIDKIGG

Columns and labels:
[1] = biological target: DNA 5-C-methyltransferase (murine, Friend erythroleukemia cells) (Mus musculus) (UniProt P13864); assay: activity assay; conditions: 5mC at all CpG C of both strands [strand 1: 5mC at 5,12,18,20; strand 2: 5mC at 4,6,12,19]; fully methylated, no methyl transfer detected; protein in an …; letters built from the parent sequence and the stated change; variant of S+AS (A.A')
[2] = biological target: DNA 5-C-methyltransferase (murine, Friend erythroleukemia cells) (Mus musculus) (UniProt P13864); assay: inhibition of the protein; conditions: 5mC at 7,11,17, 5-fluoro-C at 5,12,18,20 [5mC at 7,11,17, methylation fully inhibited, 5FC in substrate site traps enzyme covalently, protein in an extract, single-stranded DNA, letters built from the parent sequence and the stated change, variant of M2 (AMx)
[3] = test system: Hpa II DNA methyltransferase; assay: binding assay; conditions: ss ODNs not substrates at 37 C; purified native protein; single-stranded DNA
[4] = biological target: DNA 5-C-methyltransferase (murine, Friend erythroleukemia cells) (Mus musculus) (UniProt P13864); assay: binding assay; conditions: no methyl transfer detected, protein in an extract, single-stranded DNA
[5] = biological target: M.SssI (bacterial SSS1 CpG methyltransferase) (UniProt P15840); assay: activity assay; conditions: 5mC at 5,12,18,20 [5mC at 5,12,18,20]; background 1351; purified native protein; single-stranded DNA; letters built from the parent sequence and the stated change; variant of AS (A); counted as no effect

ATTGCGCATTCCGGATCCGCGATC (double strand) [AMp.A'Mp]
activity on this sequence [1]: not active

ATTGCGCATTCCGGATCCGCGATC [AMx F5,12,18,20]
binding result [2]: binds

ATTGCGCATTCCGGATCCGCGATC [AS (A)]
binding result [3]: no binding

ATTGCGCATTCCGGATCCGCGATC [M1 (AMp)]
binding result ([4]; 5mC at 5,12,18,20 [5mC at 5,12,18,20], letters built from the parent sequence and the stated change, variant of AS (A)): no binding
activity on this sequence [5]: 2340 cpm

GATCGCGGATCCGGAATGCGCAAT [M3 (SMp)]
binding result ([4]; 5mC at 4,6,12,19, variant of S (A')): no binding

GATCGCGGATCCGGAATGCGCAAT [S (A')]
binding result [3]: no binding

For some of these results: A negative result means that nothing was seen under these conditions. For some of these results: At least one result comes from cells or an extract, where the contact may be indirect. For some of these results: For at least one entry, the source does not settle the construct or the ends of the probe.
